Results reported in the supplement of paper PMC7666118.
This is one part of the list.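 How the source made its calls: active = dose-dependent thermal stabilisation significant by F-test of dose-response against flat model at 10% FDR; inactive = not significant.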

The chains behind the UniProt entries cited, without tags or fusion partners. Where a name states a change or a piece, a line headed by the entry shows the natural chain unless it says otherwise.
UniProt Q7Z4H7: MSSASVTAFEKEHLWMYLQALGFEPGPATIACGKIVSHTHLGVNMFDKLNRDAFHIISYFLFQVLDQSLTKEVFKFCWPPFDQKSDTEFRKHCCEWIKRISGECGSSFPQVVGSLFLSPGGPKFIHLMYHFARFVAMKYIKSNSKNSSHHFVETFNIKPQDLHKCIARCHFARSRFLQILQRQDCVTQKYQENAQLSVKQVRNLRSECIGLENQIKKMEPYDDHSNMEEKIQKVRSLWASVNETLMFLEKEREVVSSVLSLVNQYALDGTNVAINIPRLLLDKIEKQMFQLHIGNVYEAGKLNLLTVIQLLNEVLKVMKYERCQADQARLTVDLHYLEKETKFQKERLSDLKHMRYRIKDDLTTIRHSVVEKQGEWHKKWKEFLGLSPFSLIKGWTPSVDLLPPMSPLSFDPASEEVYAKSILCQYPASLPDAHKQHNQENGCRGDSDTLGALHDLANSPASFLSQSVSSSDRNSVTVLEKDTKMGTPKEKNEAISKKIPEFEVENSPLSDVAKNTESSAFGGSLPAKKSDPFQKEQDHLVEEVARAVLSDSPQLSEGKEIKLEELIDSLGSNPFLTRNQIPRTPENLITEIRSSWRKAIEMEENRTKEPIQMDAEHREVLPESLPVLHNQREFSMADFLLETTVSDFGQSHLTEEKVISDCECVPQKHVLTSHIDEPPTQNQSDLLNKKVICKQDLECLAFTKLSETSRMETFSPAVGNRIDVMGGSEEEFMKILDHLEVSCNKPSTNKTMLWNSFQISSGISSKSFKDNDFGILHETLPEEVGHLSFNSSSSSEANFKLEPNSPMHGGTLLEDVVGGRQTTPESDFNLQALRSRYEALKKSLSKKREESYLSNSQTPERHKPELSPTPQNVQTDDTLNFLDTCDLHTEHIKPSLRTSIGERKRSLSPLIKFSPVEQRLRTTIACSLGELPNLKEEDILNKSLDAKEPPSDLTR
UniProt Q14161: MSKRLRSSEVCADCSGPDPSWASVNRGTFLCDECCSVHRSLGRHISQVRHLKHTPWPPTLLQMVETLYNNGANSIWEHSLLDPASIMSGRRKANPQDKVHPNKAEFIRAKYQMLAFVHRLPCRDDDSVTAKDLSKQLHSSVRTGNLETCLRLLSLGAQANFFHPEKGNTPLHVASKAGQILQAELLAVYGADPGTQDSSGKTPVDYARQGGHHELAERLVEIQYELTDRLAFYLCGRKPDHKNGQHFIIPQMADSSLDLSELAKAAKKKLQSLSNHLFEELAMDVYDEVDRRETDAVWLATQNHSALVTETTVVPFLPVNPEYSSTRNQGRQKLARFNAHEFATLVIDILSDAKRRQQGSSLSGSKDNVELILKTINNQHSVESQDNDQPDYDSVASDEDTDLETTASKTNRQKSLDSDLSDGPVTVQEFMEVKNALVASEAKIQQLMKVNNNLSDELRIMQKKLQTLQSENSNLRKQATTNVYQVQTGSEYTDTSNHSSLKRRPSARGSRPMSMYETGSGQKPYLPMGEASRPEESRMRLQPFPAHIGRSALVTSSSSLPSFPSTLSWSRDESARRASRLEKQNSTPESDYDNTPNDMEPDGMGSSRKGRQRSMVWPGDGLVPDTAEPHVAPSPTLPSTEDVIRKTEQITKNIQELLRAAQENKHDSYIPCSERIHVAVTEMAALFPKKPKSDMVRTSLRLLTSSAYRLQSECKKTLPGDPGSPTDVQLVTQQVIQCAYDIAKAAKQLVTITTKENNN
UniProt Q14789: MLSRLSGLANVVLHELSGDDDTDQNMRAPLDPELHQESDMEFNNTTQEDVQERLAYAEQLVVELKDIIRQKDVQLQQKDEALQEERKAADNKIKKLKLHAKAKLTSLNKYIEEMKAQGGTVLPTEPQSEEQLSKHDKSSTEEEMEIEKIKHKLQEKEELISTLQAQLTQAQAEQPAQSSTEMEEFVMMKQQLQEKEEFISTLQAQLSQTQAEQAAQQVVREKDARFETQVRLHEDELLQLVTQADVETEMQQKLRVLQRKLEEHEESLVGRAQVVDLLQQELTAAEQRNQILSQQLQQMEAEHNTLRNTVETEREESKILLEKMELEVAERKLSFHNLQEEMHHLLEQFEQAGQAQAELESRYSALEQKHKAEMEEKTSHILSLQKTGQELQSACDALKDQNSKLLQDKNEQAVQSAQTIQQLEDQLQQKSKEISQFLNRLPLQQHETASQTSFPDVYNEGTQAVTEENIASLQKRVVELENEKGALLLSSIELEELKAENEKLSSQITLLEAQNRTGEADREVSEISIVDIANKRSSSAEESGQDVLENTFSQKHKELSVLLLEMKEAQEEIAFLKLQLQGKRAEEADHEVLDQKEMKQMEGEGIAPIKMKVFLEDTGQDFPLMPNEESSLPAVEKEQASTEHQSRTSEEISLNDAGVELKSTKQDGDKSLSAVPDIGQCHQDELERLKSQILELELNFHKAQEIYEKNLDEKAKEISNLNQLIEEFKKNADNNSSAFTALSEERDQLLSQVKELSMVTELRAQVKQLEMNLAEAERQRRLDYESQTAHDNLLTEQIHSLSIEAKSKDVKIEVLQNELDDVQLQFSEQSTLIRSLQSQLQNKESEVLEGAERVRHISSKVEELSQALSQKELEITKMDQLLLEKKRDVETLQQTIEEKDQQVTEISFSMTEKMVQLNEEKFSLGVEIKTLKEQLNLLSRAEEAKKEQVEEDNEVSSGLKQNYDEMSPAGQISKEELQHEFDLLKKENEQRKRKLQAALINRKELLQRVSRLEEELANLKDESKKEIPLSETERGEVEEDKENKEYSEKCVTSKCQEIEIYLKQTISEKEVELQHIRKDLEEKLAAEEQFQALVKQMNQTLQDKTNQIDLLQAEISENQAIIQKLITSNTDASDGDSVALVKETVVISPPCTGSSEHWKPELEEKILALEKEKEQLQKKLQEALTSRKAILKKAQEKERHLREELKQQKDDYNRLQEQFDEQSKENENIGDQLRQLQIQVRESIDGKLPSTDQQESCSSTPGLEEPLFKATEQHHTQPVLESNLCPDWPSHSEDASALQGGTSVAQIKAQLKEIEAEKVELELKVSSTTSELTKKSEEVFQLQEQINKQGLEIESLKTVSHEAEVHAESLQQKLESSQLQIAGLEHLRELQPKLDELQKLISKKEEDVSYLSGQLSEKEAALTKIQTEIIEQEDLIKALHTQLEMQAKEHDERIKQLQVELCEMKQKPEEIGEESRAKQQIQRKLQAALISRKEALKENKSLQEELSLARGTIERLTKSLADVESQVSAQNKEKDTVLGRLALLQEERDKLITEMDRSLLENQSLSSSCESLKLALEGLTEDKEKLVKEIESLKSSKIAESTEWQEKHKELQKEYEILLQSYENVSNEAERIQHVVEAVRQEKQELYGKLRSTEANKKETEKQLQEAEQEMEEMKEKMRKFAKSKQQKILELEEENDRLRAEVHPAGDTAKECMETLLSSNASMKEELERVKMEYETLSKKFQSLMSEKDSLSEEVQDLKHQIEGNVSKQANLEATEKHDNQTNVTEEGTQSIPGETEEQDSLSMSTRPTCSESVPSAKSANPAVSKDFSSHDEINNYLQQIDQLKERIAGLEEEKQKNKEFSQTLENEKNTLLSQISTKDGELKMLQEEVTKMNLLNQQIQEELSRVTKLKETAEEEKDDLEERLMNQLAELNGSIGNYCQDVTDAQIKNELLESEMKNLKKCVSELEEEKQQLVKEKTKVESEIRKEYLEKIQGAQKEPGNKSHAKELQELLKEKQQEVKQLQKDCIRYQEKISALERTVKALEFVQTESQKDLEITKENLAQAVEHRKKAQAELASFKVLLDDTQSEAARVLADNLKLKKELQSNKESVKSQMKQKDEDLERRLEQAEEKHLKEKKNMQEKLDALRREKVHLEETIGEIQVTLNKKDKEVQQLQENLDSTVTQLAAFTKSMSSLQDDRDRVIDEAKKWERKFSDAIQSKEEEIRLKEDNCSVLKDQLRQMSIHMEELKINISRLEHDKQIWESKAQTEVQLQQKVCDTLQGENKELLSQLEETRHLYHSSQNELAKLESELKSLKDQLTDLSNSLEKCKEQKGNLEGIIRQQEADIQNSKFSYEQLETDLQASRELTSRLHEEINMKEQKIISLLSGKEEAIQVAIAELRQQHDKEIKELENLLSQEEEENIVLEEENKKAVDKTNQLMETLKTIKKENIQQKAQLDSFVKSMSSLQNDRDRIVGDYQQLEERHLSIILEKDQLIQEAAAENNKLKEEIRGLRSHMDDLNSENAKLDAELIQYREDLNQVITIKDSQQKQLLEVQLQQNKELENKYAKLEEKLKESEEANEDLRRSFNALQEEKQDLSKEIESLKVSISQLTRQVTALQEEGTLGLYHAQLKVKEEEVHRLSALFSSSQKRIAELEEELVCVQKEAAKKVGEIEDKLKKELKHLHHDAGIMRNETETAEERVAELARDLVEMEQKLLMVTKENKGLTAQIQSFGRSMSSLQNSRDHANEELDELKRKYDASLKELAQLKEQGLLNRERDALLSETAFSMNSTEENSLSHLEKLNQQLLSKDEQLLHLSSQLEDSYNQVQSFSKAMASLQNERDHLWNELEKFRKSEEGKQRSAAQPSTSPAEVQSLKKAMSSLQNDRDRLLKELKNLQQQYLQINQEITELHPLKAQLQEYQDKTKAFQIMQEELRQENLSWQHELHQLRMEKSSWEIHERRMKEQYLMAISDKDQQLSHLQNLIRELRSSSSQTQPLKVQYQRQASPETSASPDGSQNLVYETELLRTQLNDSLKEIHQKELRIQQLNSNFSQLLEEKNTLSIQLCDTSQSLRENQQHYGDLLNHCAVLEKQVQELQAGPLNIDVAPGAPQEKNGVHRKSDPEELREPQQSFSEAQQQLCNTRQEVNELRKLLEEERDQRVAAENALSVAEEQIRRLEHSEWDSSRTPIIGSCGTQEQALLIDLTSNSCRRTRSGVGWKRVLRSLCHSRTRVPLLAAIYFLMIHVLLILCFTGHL
UniProt Q9BX68: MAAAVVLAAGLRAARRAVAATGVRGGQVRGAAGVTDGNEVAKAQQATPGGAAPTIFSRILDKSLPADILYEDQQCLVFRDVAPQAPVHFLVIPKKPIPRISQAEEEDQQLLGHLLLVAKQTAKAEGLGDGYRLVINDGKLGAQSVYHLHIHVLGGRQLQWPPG
UniProt P54198, whole entry: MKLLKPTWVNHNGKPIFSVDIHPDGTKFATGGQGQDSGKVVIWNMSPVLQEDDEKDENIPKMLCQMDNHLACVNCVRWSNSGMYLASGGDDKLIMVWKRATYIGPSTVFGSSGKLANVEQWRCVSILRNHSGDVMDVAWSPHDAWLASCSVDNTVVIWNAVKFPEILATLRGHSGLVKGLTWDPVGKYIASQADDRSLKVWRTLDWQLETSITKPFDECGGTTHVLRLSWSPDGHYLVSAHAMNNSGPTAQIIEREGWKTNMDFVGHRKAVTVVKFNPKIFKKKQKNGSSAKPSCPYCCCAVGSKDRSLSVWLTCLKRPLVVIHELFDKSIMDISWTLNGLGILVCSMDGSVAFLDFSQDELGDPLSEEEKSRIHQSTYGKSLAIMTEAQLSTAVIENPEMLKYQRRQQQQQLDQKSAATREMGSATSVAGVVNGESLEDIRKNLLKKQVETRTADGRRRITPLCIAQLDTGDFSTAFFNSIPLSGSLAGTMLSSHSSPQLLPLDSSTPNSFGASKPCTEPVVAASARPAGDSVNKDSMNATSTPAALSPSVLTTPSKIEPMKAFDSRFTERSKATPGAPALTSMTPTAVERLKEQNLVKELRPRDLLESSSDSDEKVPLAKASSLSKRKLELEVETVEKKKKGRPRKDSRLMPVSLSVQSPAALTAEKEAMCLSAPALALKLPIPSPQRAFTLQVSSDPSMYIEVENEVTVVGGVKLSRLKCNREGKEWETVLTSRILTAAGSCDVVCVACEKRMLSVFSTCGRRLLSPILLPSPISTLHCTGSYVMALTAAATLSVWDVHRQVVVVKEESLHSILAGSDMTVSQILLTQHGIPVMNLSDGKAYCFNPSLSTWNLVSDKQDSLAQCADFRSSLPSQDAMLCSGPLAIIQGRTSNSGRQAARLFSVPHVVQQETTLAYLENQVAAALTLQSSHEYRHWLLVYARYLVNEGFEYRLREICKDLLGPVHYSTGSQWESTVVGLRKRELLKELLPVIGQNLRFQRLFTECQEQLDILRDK
UniProt Q9BT25: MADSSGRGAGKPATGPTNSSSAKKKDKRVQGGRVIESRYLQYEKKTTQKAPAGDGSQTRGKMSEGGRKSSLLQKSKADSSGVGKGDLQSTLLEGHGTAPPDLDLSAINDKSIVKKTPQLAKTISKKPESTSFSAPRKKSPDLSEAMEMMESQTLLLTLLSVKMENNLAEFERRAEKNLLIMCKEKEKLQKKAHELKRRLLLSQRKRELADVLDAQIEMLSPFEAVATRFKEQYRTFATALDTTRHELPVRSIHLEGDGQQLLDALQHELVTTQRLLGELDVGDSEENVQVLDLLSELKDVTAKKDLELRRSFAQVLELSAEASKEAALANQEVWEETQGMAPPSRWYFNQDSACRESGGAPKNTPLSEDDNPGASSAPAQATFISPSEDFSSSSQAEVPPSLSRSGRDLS

These targets were tested with Nc1nc2c(ncn2[C@@H]2O[C@H](COP(=O)(O)OP(=O)(O)OP(=O)(O)O)[C@@H](O)[C@H]2O)c(=O)[nH]1 (assay: dose-dependent thermal stabilisation call (2D-TPP, DLPTP, 10% FDR) (binary (1 = stabilised)); higher = stabilised by the compound). Conditions: system: Jurkat gel-filtered lysate; concentration range 1-500 µM.

Target | dose-dependent thermal stabilisation call
HMGCL (UniProt P35914) | inactive: 0
GCC1 (UniProt Q96CN9) | active: 1
HEBP2 (UniProt Q9Y5Z4) | inactive: 0
GNPNAT1 (UniProt Q96EK6) | inactive: 0
HAUS6 (UniProt Q7Z4H7) | inactive: 0
HDGFL2 (UniProt Q7Z4V5) | inactive: 0
HIBCH (UniProt Q6NVY1) | inactive: 0
GIT2 (UniProt Q14161) | active: 1
HAUS1 (UniProt Q96CS2) | inactive: 0
GPBP1L1 (UniProt Q9HC44) | inactive: 0
HMG20A (UniProt Q9NP66) | inactive: 0
GNE (UniProt Q9Y223) | active: 1
GOT1 (UniProt P17174) | inactive: 0
HDHD2 (UniProt Q9H0R4) | inactive: 0
GPN3 (UniProt Q9UHW5) | active: 1
GRSF1 (UniProt Q12849) | inactive: 0
HCFC2 (UniProt Q9Y5Z7) | inactive: 0
GALK1 (UniProt P51570) | active: 1

Target | dose-dependent thermal stabilisation call
GLMN (UniProt Q92990) | inactive: 0
GCC2 (UniProt Q8IWJ2) | inactive: 0
HAUS7 (UniProt Q99871) | inactive: 0
GOLGB1 (UniProt Q14789) | inactive: 0
HINT2 (UniProt Q9BX68) | inactive: 0
GFRA1 (UniProt P56159) | inactive: 0
GMPPB (UniProt Q9Y5P6) | active: 1
HIRA (UniProt P54198) | active: 1
GCFC2 (UniProt P16383) | inactive: 0
HELB (UniProt Q8NG08) | inactive: 0
HEXB (UniProt P07686) | inactive: 0
GNL1 (UniProt P36915) | active: 1
HECTD1 (UniProt Q9ULT8) | inactive: 0
GIMAP6 (UniProt Q6P9H5) | active: 1
HAUS8 (UniProt Q9BT25) | inactive: 0
GLOD4 (UniProt Q9HC38) | inactive: 0
HEBP1 (UniProt Q9NRV9) | inactive: 0
GART (UniProt P22102) | inactive: 0

Random excerpt: two entries already listed, in no set order.
Target | dose-dependent thermal stabilisation call
HEBP1 (UniProt Q9NRV9) | inactive: 0
GCC2 (UniProt Q8IWJ2) | inactive: 0
